According to the supplement of paper PMC10849652:
The other results are listed elsewhere or left out.

Protein sequences, listed by entry. Tags and fused reporters are not part of them. Lines headed by an entry give the natural chain unless they say otherwise; changes in a name come on top.
UniProt Q15418, whole entry, looked up: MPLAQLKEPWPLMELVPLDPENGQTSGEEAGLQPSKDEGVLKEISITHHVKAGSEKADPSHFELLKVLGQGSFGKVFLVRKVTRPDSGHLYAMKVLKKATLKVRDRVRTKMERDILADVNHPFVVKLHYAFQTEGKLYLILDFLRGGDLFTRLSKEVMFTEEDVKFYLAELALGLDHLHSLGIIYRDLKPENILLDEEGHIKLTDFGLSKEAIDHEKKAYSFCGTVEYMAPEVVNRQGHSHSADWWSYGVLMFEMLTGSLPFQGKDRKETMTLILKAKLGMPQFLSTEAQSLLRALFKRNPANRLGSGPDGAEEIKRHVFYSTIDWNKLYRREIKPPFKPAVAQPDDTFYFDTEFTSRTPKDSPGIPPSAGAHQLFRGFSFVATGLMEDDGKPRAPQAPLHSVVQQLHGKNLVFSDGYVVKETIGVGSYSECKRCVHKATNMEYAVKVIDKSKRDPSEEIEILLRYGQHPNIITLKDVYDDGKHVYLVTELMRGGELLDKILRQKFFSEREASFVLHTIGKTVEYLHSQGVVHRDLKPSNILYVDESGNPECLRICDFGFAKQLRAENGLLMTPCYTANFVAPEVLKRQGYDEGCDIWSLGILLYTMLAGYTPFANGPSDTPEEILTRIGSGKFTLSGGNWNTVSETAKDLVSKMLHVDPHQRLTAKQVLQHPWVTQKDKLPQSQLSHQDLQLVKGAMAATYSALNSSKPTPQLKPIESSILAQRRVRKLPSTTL
UniProt Q15404: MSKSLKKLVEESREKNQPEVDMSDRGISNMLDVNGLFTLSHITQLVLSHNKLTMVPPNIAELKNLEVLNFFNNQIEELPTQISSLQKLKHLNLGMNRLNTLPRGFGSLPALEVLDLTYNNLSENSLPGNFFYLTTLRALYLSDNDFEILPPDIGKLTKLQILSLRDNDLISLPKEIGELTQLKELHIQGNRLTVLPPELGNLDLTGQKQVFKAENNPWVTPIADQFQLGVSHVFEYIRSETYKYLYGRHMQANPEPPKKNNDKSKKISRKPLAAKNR
UniProt Q96S38: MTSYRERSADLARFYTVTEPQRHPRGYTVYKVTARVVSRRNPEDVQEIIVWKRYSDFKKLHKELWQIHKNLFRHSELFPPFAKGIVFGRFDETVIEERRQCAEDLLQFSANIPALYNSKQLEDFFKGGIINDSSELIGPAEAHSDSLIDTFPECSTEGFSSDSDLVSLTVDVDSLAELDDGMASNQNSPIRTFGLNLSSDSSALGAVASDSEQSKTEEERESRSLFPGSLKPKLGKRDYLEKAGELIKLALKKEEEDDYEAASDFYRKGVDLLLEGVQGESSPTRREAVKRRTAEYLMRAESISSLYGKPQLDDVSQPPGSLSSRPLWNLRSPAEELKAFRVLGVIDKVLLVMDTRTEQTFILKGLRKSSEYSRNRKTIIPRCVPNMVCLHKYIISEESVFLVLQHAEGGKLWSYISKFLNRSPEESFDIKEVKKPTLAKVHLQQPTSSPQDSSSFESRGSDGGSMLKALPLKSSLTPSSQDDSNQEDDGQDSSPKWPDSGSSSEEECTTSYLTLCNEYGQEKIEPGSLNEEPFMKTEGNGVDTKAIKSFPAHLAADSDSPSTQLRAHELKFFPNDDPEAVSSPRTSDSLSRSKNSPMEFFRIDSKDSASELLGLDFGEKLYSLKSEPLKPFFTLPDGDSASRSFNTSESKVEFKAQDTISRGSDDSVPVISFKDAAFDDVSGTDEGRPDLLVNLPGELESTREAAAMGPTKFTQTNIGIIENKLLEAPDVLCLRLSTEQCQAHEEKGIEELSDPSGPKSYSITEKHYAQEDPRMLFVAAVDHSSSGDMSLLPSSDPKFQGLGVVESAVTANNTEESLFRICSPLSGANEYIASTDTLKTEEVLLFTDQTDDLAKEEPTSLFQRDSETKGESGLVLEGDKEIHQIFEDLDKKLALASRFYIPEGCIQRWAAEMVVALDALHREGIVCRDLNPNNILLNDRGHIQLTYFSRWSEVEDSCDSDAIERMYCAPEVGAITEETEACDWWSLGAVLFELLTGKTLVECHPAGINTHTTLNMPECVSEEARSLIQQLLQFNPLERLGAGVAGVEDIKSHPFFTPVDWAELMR
UniProt Q7LG56, whole entry, looked up: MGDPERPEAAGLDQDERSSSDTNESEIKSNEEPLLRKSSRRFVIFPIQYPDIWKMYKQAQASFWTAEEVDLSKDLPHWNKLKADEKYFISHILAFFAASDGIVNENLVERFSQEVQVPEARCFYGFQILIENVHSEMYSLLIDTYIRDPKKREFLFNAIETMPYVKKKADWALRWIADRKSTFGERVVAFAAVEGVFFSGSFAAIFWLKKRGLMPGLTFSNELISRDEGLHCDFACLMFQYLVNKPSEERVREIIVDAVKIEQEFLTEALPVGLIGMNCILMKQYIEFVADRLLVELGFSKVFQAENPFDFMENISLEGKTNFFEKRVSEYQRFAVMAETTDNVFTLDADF
UniProt Q92681: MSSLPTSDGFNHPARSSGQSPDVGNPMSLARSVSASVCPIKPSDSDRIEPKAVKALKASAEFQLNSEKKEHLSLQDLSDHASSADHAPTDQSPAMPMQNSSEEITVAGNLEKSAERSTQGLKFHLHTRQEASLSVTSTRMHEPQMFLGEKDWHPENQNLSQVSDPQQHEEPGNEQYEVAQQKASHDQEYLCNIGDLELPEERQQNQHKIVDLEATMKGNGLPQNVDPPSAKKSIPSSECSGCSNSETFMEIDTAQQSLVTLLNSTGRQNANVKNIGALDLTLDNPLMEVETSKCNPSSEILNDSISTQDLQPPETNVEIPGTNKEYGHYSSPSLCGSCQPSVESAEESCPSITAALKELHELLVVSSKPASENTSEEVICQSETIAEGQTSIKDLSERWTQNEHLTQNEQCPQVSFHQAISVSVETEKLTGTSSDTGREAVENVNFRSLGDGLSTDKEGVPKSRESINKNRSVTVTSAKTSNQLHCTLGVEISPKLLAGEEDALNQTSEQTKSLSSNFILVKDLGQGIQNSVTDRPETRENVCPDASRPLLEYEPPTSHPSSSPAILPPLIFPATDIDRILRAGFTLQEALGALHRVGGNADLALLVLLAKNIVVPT
UniProt P19793: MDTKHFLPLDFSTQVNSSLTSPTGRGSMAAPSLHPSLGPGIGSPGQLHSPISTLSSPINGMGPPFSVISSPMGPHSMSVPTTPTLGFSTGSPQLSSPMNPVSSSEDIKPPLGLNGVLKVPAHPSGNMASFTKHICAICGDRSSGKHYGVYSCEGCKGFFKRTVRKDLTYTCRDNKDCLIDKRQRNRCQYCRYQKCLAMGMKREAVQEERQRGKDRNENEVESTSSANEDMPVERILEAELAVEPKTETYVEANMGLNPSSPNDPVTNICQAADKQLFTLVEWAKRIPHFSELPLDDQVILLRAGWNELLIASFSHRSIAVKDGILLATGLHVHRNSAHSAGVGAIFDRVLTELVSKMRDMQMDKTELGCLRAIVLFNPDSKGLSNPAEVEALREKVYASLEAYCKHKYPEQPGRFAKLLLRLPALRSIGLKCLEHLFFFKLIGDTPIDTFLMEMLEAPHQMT
UniProt Q7L523, whole entry, looked up: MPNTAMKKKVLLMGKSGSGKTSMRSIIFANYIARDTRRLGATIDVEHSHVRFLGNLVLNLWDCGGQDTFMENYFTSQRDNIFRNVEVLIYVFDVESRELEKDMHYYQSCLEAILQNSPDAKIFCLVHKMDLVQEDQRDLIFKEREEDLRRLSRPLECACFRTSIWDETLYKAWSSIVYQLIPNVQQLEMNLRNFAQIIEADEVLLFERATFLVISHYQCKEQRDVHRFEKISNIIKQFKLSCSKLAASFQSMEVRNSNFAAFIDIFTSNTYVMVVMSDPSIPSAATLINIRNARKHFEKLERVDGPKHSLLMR
UniProt Q5VWQ0: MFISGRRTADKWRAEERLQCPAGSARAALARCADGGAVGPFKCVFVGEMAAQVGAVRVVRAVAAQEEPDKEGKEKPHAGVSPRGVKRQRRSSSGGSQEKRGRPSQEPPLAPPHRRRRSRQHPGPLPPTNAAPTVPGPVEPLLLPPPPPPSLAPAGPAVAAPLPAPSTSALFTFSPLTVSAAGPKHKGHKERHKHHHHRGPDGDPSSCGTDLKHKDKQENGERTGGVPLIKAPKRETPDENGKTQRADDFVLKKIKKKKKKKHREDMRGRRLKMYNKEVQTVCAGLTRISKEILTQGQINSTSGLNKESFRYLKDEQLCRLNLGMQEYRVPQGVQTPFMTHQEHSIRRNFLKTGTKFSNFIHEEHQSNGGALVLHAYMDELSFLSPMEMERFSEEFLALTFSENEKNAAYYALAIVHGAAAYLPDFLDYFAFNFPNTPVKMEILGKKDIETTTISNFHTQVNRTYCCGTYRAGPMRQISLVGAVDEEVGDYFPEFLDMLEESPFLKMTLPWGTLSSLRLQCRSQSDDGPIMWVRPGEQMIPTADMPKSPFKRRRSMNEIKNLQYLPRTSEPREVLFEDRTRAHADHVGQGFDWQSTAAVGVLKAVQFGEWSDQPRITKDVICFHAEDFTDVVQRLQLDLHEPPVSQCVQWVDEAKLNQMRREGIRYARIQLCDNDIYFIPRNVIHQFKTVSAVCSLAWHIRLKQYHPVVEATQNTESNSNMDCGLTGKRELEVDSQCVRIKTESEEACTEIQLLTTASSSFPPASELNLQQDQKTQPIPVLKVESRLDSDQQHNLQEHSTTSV
UniProt Q8WWV3: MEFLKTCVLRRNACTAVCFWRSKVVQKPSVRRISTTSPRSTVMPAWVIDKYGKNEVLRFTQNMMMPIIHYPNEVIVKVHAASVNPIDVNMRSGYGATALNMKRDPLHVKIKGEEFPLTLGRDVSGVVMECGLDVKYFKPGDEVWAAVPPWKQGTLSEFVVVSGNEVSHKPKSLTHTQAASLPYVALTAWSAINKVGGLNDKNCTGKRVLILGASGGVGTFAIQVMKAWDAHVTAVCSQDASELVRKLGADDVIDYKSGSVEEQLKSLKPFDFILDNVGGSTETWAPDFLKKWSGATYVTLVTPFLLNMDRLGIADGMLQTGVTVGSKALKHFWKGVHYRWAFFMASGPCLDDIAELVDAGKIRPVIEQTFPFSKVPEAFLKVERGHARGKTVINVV
UniProt P05386, whole entry, looked up: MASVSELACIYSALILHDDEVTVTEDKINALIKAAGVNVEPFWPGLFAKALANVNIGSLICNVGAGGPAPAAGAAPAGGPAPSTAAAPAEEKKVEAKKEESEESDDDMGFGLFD
UniProt Q9P2E9: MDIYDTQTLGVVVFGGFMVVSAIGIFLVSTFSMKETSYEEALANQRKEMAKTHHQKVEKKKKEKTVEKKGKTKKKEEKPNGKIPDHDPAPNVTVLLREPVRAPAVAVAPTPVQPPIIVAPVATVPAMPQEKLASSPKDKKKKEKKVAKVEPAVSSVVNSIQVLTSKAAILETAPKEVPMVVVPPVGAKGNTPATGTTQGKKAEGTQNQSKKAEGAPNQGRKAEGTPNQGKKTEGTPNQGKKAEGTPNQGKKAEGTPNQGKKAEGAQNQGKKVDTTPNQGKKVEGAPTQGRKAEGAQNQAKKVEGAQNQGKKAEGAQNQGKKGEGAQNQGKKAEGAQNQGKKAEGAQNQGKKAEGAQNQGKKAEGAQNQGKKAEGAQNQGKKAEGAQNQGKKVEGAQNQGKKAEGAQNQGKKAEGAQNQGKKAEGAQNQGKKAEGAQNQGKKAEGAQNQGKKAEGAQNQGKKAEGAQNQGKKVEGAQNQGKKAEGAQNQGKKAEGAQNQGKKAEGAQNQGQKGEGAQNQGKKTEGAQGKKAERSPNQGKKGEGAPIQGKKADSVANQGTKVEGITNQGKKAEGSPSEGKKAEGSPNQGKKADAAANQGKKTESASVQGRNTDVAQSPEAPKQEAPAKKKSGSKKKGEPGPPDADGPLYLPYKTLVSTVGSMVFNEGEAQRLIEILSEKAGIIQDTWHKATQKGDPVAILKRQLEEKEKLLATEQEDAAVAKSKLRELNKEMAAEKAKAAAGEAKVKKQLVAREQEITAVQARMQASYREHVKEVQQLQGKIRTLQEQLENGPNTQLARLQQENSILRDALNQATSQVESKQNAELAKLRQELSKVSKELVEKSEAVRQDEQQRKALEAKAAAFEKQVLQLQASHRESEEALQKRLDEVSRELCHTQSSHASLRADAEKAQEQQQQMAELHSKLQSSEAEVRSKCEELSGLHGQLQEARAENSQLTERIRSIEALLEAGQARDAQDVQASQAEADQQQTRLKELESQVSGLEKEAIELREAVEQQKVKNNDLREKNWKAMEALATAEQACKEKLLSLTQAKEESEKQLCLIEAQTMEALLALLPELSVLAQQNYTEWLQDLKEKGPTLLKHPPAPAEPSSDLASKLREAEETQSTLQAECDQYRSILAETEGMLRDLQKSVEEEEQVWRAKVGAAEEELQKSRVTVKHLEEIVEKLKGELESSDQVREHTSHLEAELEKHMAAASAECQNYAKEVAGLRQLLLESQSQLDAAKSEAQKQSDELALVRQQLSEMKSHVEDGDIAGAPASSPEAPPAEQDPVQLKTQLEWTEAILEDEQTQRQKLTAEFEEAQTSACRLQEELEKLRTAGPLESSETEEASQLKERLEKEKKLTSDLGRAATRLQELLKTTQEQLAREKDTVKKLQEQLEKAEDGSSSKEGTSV

Tests used:
Assay in all cases: log2 fold change, soluble protein after heating vs DMSO (PISA); higher = thermal stabilisation; K562 lysate, 10 uM; active = over 0.2 and 3.5 SD of the protein, either way, in both replicates (recomputed)
nilotinib = compound: Cc1cn(-c2cc(NC(=O)c3ccc(C)c(Nc4nccc(-c5cccnc5)n4)c3)cc(C(F)(F)F)c2)cn1 [nilotinib]
How it was run: (§1)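 Dounce homogenisation of K562 pellets in PBS pH 7.4 with 1 mM MgCl2 produced a crude extract, used at 1 mg/mL protein. Exposure to 10 μM compound lasted 30 min, and aliquots were then heated for 3 min across 48°C-58°C, pooled and brought to 0.5% NP-40 at 4°C. The supernatant after 21,000xg for 90 min was quantified by TMTpro 16plex LC-MS/MS with channel sums equalised. Duplicate values are given as log-two fold change in thermal stability relative to solvent controls.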

[1] = compound: Cc1nc(Nc2n[nH]c3c2CN(C(=O)N[C@H](CN(C)C)c2ccccc2)C3(C)C)c2sccc2n1
How it was run: as §1

dasatinib = compound: Cc1nc(Nc2ncc(C(=O)Nc3c(C)cccc3Cl)s2)cc(N2CCN(CCO)CC2)n1 [dasatinib]
How it was run: as §1

[2] = compound: Cc1ncc(-c2ccnc(Nc3ccc(S(C)(=O)=O)cc3)n2)n1C(C)C
How it was run: as §1

[3] = compound: Cn1cc(-c2ccc3c(c2)CCN3C(=O)Cc2cccc(C(F)(F)F)c2)c2c(N)ncnc21
How it was run: as §1

quisinostat = compound: Cn1cc(CNCC2CCN(c3ncc(C(=O)NO)cn3)CC2)c2ccccc21 [quisinostat]
How it was run: as §1

tipifarnib = compound: Cn1cncc1[C@@](N)(c1ccc(Cl)cc1)c1ccc2c(c1)c(-c1cccc(Cl)c1)cc(=O)n2C [tipifarnib]
How it was run: as §1

[4] = compound: NC(=O)Nc1cc(-c2cccc(F)c2)sc1C(=O)N[C@H]1CCCNC1
How it was run: as §1

[5] = compound: NC(=O)c1cnc(N[C@@H]2CCCC[C@@H]2N)nc1Nc1cccc(-n2nccn2)c1
How it was run: as §1

[6] = compound: NC1(c2ccc(-c3nc4ccn5c(=O)[nH]nc5c4cc3-c3ccccc3)cc2)CCC1
How it was run: as §1

| Target | log2 fold change (nilotinib) | log2 fold change [1] | log2 fold change (dasatinib) | log2 fold change [2] | log2 fold change [3] | log2 fold change (quisinostat) | log2 fold change (tipifarnib) | log2 fold change [4] | log2 fold change [5] | log2 fold change [6] |
| --- | --- | --- | --- | --- | --- | --- | --- | --- | --- | --- |
| RPS6KA1 (UniProt Q15418) | inactive: -0.037 | inactive: 0.204 | inactive: -0.113 | inactive: 0.078 | inactive: 0.031 | inactive: -0.045 | inactive: 0.002 | inactive: 0.256 | inactive: 0.093 | inactive: -0.028 |
| RPS20 isoform 2 (UniProt P60866) | inactive: -0.012 | inactive: -0.031 | inactive: -0.059 | inactive: 0.008 | inactive: 0.012 | inactive: -0.107 | inactive: 0.027 | inactive: -0.025 | inactive: -0.021 | inactive: 0.009 |
| RSU1 (UniProt Q15404) | inactive: 0.011 | inactive: -0.011 | inactive: 0.007 | inactive: -0.028 | inactive: 0.001 | inactive: 0.112 | inactive: 0.016 | inactive: -0.002 | inactive: 0.007 | inactive: 0.002 |
| RPS6KC1 (UniProt Q96S38) | inactive: -0.012 | inactive: 0.006 | inactive: -0.01 | inactive: -0.019 | inactive: 0.056 | inactive: -0.037 | inactive: -0.032 | inactive: -0.026 | inactive: 0.029 | inactive: -0.061 |
| RPL38 (UniProt P63173) | inactive: -0.007 | inactive: -0.053 | inactive: -0.003 | inactive: -0.004 | inactive: 0.036 | inactive: -0.007 | inactive: 0.005 | inactive: 0.012 | inactive: -0.001 | inactive: 0.037 |
| RPL5 (UniProt P46777) | inactive: 0.022 | inactive: 0.007 | inactive: 0.01 | inactive: 0.004 | inactive: 0.01 | inactive: 0.009 | inactive: 0.057 | inactive: 0.001 | inactive: -0.015 | inactive: -0.006 |
| RPLP0 (UniProt P05388) | inactive: 0.008 | inactive: -0.032 | inactive: -0.042 | inactive: 0.017 | inactive: 0.011 | inactive: -0.006 | inactive: 0.014 | inactive: -0.03 | inactive: -0.019 | inactive: -0.014 |
| RPS14 (UniProt P62263) | inactive: 0.021 | inactive: -0.008 | inactive: -0.013 | inactive: 0.027 | inactive: -0.013 | inactive: 0.042 | inactive: -0.009 | inactive: 0.006 | inactive: -0.01 | inactive: -0.018 |
| RPS27 (UniProt P42677) | inactive: 0.063 | inactive: -0.08 | inactive: -0.046 | inactive: 0.003 | inactive: 0.011 | inactive: 0.045 | inactive: 0.027 | inactive: 0.05 | inactive: -0.062 | inactive: 0.011 |
| RRM2B isoform 6 (UniProt Q7LG56) | inactive: -0.01 | inactive: -0.014 | inactive: 0.041 | inactive: -0.062 | inactive: 0.005 | inactive: 0.011 | inactive: -0.054 | inactive: -0.021 | inactive: -0.048 | inactive: -0.002 |
| RSC1A1 (UniProt Q92681) | inactive: 0.077 | inactive: 0.096 | inactive: -0.257 | inactive: 0.022 | inactive: 0 | inactive: -0.202 | inactive: 0.026 | inactive: 0.046 | – | – |
| RXRA (UniProt P19793) | inactive: 0.164 | inactive: -0.053 | inactive: -0.112 | inactive: 0.119 | inactive: -0.024 | inactive: -0.028 | inactive: 0.011 | inactive: 0.027 | inactive: 0.024 | inactive: -0.014 |
| RRAGA (UniProt Q7L523) | inactive: -0.144 | inactive: 0.032 | inactive: -0.025 | inactive: -0.065 | inactive: 0.024 | inactive: -0.045 | inactive: 0.109 | inactive: 0.082 | inactive: 0.033 | inactive: -0.04 |
| RPS16 (UniProt P62249) | inactive: -0.04 | inactive: 0.002 | inactive: -0.023 | inactive: -0.096 | inactive: 0.011 | inactive: 0.077 | inactive: 0.033 | inactive: -0.023 | inactive: -0.006 | inactive: 0.038 |
| RSBN1 (UniProt Q5VWQ0) | inactive: 0.018 | inactive: 0.003 | inactive: 0.054 | inactive: -0.033 | inactive: -0.046 | inactive: -0.117 | inactive: 0.041 | inactive: 0.024 | inactive: 0.003 | inactive: -0.03 |
| RTN4IP1 (UniProt Q8WWV3) | inactive: -0.056 | active: -0.34 | inactive: -0.046 | inactive: -0.259 | inactive: 0.028 | inactive: -0.033 | inactive: 0.245 | inactive: -0.055 | inactive: -0.012 | inactive: 0.148 |
| RTN2 (UniProt O75298) | inactive: -0.019 | inactive: 0.03 | inactive: 0.01 | inactive: -0.044 | inactive: 0.027 | inactive: 0.171 | inactive: -0.07 | inactive: -0.057 | inactive: -0.056 | inactive: 0.018 |
| RPLP1 (UniProt P05386) | inactive: 0.015 | inactive: -0.114 | inactive: -0.015 | inactive: 0.048 | inactive: -0.006 | inactive: 0.014 | inactive: -0.039 | inactive: 0.046 | inactive: -0.099 | inactive: -0.019 |
| RTN4 isoform 5 (UniProt Q9NQC3) | inactive: 0.047 | inactive: -0.009 | inactive: -0.137 | inactive: -0.093 | inactive: -0.043 | inactive: 0.173 | inactive: -0.014 | inactive: 0.056 | inactive: 0.016 | inactive: 0.013 |
| RPS12 (UniProt P25398) | inactive: -0.013 | inactive: -0.011 | inactive: 0.006 | inactive: 0.022 | inactive: 0.007 | inactive: 0.052 | inactive: 0.009 | inactive: -0.046 | inactive: -0.007 | inactive: 0.019 |
| RUVBL2 (UniProt Q9Y230) | inactive: 0.006 | inactive: 0.01 | inactive: -0.014 | inactive: 0.009 | inactive: -0.001 | inactive: 0.009 | inactive: -0.013 | inactive: -0.01 | inactive: -0.001 | inactive: 0.008 |
| RPRD2 (UniProt Q5VT52) | inactive: 0.006 | inactive: 0.009 | inactive: -0.07 | inactive: 0.004 | inactive: -0.074 | inactive: 0.037 | inactive: -0.187 | inactive: 0.076 | inactive: -0.016 | inactive: 0.08 |
| RSL24D1 (UniProt Q9UHA3) | inactive: -0.038 | inactive: 0.012 | inactive: 0.097 | inactive: -0.094 | inactive: -0.089 | inactive: 0.096 | inactive: 0.071 | inactive: 0.032 | inactive: -0.006 | inactive: -0.08 |
| RUBCN (UniProt Q92622) | inactive: -0.029 | inactive: -0.01 | inactive: 0.034 | inactive: -0.033 | inactive: 0.004 | inactive: 0.01 | inactive: 0.044 | inactive: 0 | inactive: 0.116 | inactive: 0.014 |
| RRN3 (UniProt Q9NYV6) | inactive: -0.02 | inactive: 0.06 | inactive: -0.169 | inactive: 0.185 | inactive: 0 | inactive: -0.109 | inactive: 0.156 | inactive: -0.039 | inactive: 0.084 | – |
| RPS9 (UniProt P46781) | inactive: 0.001 | inactive: -0.023 | inactive: 0.067 | inactive: -0.039 | inactive: 0.023 | inactive: 0.141 | inactive: 0.022 | inactive: -0.037 | inactive: -0.015 | inactive: 0.039 |
| RPS2 (UniProt P15880) | inactive: 0.015 | inactive: -0.029 | inactive: -0.001 | inactive: 0.001 | inactive: -0.003 | inactive: 0.018 | inactive: 0.029 | inactive: -0.015 | inactive: 0.002 | inactive: 0.007 |
| RRBP1 (UniProt Q9P2E9) | inactive: -0.001 | inactive: 0.003 | inactive: 0.012 | inactive: -0.006 | inactive: 0.006 | inactive: 0.003 | inactive: -0.039 | inactive: 0.018 | inactive: 0.004 | inactive: -0.009 |
| RPL7A (UniProt P62424) | inactive: 0.023 | inactive: 0.006 | inactive: 0.018 | inactive: 0.014 | inactive: -0.031 | inactive: 0.102 | inactive: 0.031 | inactive: -0.043 | inactive: -0.016 | inactive: 0.011 |
| RPTOR (UniProt Q8N122) | inactive: -0.005 | inactive: -0.035 | inactive: -0.041 | inactive: -0.016 | inactive: 0.011 | inactive: -0.057 | inactive: 0.014 | inactive: 0.047 | inactive: 0.006 | inactive: -0.041 |
